Assay results taken from publication PMC5836448.
Results are given in words; binding and its absence hold for the method and conditions named. In cells and extracts the contact can be indirect. Some binding calls cover weakened binding; strength is not graded here.

Chains of the proteins cited; added tags and fusions are not shown.
UniProt Q86V15: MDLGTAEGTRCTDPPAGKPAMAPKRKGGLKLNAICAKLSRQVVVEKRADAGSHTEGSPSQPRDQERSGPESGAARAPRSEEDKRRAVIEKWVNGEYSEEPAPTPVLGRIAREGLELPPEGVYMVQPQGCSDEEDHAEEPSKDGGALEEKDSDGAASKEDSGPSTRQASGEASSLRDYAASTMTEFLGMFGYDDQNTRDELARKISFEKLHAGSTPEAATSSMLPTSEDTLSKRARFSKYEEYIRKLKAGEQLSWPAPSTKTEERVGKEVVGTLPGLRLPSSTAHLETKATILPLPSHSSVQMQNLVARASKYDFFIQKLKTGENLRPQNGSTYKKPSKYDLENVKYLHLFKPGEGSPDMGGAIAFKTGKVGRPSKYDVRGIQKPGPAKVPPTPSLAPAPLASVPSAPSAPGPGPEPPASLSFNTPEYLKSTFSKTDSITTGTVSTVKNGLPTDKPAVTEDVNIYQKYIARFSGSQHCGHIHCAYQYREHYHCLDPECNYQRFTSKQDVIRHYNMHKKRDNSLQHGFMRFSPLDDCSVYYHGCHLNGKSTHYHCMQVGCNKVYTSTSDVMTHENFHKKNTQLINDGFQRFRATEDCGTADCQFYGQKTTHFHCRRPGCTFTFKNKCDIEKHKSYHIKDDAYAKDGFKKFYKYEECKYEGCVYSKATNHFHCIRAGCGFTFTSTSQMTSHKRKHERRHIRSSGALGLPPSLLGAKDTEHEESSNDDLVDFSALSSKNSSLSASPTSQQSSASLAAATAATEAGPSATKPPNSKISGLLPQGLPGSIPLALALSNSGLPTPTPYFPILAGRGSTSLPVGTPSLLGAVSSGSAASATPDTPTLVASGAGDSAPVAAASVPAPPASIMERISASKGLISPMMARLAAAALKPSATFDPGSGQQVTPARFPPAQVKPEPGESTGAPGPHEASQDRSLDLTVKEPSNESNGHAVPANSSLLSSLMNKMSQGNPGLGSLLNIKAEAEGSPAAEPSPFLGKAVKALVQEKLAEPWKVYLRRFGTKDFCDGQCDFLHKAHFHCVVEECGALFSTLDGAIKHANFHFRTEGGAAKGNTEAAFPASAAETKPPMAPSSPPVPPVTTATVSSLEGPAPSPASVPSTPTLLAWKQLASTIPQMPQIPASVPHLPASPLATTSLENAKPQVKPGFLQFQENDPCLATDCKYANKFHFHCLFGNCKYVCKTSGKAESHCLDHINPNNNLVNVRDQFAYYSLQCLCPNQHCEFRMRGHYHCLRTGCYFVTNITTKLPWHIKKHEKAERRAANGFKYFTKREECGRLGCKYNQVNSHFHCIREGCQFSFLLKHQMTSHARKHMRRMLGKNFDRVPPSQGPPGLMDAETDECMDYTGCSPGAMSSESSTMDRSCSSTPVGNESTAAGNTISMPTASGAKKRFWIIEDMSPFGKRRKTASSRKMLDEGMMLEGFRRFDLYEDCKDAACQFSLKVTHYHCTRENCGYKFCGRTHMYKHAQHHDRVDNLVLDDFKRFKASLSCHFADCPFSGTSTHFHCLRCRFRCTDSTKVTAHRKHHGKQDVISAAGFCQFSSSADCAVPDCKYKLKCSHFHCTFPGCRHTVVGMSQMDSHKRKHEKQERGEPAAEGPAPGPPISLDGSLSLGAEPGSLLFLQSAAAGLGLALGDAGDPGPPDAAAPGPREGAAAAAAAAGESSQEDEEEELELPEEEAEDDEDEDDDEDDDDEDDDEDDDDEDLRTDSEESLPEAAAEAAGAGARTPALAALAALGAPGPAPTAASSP

Molecular target: raf-1 proto-oncogene, serine/threonine kinase (human (endogenous in HCCLM3 and PLC/PRF/5)) (UniProt P04049)
Assay: co-IP; pre-cleared whole cell lysates of HCCLM3^CASZ1, HCCLM3 and PLC/PRF/5 cells; antibody against CASZ1 or RAF1 conjugated to AminoLink Plus Resin, 4 °C overnight; gentle elution buffer; western blot

For “Castor zinc finger 1 (from UniProt Q86V15 1-1759)”, the binding was “binds”.
